The results in this text go back to PMC5605669.

Assay [1] has as its target APOBEC3G, wild type (human), Q9HC16. Kind of assay: AFM imaging; 70 nM A3G incubated 10 min with linearized m13 ssDNA in 10 mM Tris, 2.5 mM NaCl; deposited on APTES coated mica, imaged in liquid; monomers per cluster on ssDNA from cluster volume; both purified. The note with it: remark: other sources report otherwise.
Assay [2] has the same target. The assay is described as follows: optical tweezers (single-molecule ssDNA extension); fraction of bound A3G that stays stably bound after washing with buffer, against incubation time (200 to 1000 s) at 50 nM; single exponential fit gives the oligomerization rate on ssDNA at 80 pN; both purified. The note with it: remark: other sources report otherwise.

These are yes or no findings as the source states them, for the method shown. Some results given as binding are weak or reduced against the parent protein; the word gives no strength.

B1: APOBEC3G, wild type, Q9HC16 1-384 (enzyme)
chain: MKPHFRNTVERMYRDTFSYNFYNRPILSRRNTVWLCYEVKTKGPSRPPLDAKIFRGQVYSELKYHPEMRFFHWFSKWRKLHRDQEYEVTWYISWSPCTKCTRDMATFLAEDPKVTLTIFVARLYYFWDPDYQEALRSLCQKRDGPRATMKIMNYDEFQHCWSKFVYSQRELFEPWNNLPKYYILLHIMLGEILRHSMDPPTFTFNFNNEPWVRGRHETYLCYEVERMHNDTWVLLNQRRGFLCNQAPHKHGFLEGRHAELCFLDVIPFWKLDLDQDYRVTCFTSWSPCFSCAQEMAKFISKNKHVSLCIFTARIYDDQGRCQEGLRTLAEAGAKISIMTYSEFKHCWDTFVDHQGCPFQPWDGLDEHSQDLSGRLRAILQNQEN
As to B1, the binding result in assay [1] and in assay [2] was “binds” in each case.
